Data reported in patent US20180265463A1, “Vitamin D3 Derivatives and Pharmaceutical Use Thereof” (Kyoto University, priority 2014, published 2018).
Some of these results come from one statement about several compounds together.

System: SREBP-2
Assay: Western-blot analysis of SREBP-2 in CHO-K1 cells
Format: cell-based, Chinese hamster
Settings: 5 μM, 16 h, CHO-K1 cells (FIG. 7, FIG. 8)
Description: CHO-K1 cells were treated with DMSO alone or each molecule (5 μM) for 18 h. The levels of precursor and mature forms of SREBP-2 were analyzed by Western-blot. Western-blots of actin are shown in lower panel as a loading control.
CHO-K1 cells were treated with DMSO alone or each molecule (5 μM) for 16 h. The levels of precursor and mature forms of SREBP-2 were analyzed by Western-blot. Western-blots of actin are shown in lower panel as a loading control.
On day 0, CHO-K1 cells were added to 6-well plates at 3.0×10^5 cells per well in medium A. On day 1, the cells were washed with PBS, and then incubated in medium B in the absence or presence of specific test compounds (5 μM). After 16 h of incubation, the cells were washed three times with cold PBS, and lysed with a buffer A (50 mM Tris-HCl (pH 7.5), 150 mM NaCl, 1% (v/v) Nonidet P40, 0.5% (w/v) sodium deoxycholate, 8 M urea, and protease inhibitor cocktail (Nacalai)). The cell lysate were passed 16 times through a 25 G needle and centrifuged at 7,000 g at 4° C. for 10 min. The supernatants were transferred to new tubes, and the pellets were extracted with a buffer A. The resulting buffer was centrifuged at 7,000 g at 4° C. for 10 min, and the supernatants were combined to the previous ones. The resulting lysate was mixed with 0.20 volume of 6×SDS sample buffer (Nacalai) and incubated at room temperature for 30 min. The samples were separated on a 10% SDS-PAGE gel and blotted, using mouse monoclonal antibodies against SREBP-2 (IgG-7D4), SCAP (IgG-9D5), c-Myc (IgG1-MC045), and actin (AC-40). The specific bands were visualized using enhanced chemiluminescence (ECL Prime Western Blotting Detection Reagent, GE Healthcare) on an ImageQuant LAS 500 (GE Healthcare).

For 1α-OH-3α-NHPhth VD3 [Compound 77], the “levels of the mature form of SREBP versus DMSO” value (“levels … of SREBP versus DMSO” below) was “lower than that of DMSO”.

For 1α-OH-3α-NHTs VD3 [Compound 73], the “levels … of SREBP versus DMSO” value was “lower than that of DMSO”.

For “19-Nor 1β-NH(p-SCF3Bz)-3β-OH VD3 [Compound 74]”, the “levels … of SREBP versus DMSO” value was “lower than that of DMSO”.

With 19-Nor 1β-NHTs-3β-OH VD3 [Compound 72] the “levels … of SREBP versus DMSO” value was “lower than that of DMSO”.

For 19-Nor 1β-NPhth-3β-OH VD3 [Compound 76], the “levels … of SREBP versus DMSO” value was “lower than that of DMSO”.

`Cc1ccc(S(=O)(=O)N[C@@H]2C/C(=C\C=C3/CCC[C@]4(C)[C@@H]([C@H](C)CCCC(C)(C)O)CC[C@@H]34)C[C@@H](O)C2)cc1` [Compound 85, 19-Nor 1α-NHTs-3β-OH VD3] was tested, and the “levels … of SREBP versus DMSO” value was “lower than that of DMSO”.

With `C[C@H](CCCC(C)(C)O)[C@H]1CC[C@H]2/C(=C/C=C3/C[C@@H](O)C[C@H](NC(=O)c4ccc(SC(F)(F)F)cc4)C3)CCC[C@]12C` [Compound 86, 19-Nor 1α-NH(p-SCF3Bz)-3β-OH VD3] the “levels … of SREBP versus DMSO” value was “lower than that of DMSO”.

In the case of `C[C@H](CCCC(C)(C)O)[C@H]1CC[C@H]2/C(=C/C=C3/C[C@@H](O)C[C@H](N4C(=O)c5ccccc5C4=O)C3)CCC[C@]12C` [Compound 87, 19-Nor 1α-NPhth-3β-OH VD3], the “levels … of SREBP versus DMSO” value is reported as “lower than that of DMSO”.

`C[C@H](CCCC(C)(C)O)[C@H]1CC[C@H]2/C(=C/C=C3/C[C@@H](O)C[C@H](NS(C)(=O)=O)C3)CCC[C@]12C` [Compound 89, 19-Nor 1α-NHMs-3β-OH VD3] was tested, and the “levels … of SREBP versus DMSO” value was “lower than that of DMSO”.

With `C[C@H](CCCC(C)(C)O)[C@H]1CC[C@H]2/C(=C/C=C3/C[C@@H](O)C[C@H](NC(=O)C(F)(F)F)C3)CCC[C@]12C` [Compound 90, 19-Nor 1α-NH(Trifluoroacetyl)-3β-OH VD3] the “levels … of SREBP versus DMSO” value was “lower than that of DMSO”.

With `C[C@H](CCCC(C)(C)O)[C@H]1CC[C@H]2/C(=C/C=C3/C[C@@H](O)C[C@H](NS(=O)(=O)c4cccc5c(N(C)C)cccc45)C3)CCC[C@]12C` [Compound 91, 19-Nor 1α-NHDns-3β-OH VD3] the “levels … of SREBP versus DMSO” value was “lower than that of DMSO”.

For `C[C@H](CCCC(C)(C)O)[C@H]1CC[C@H]2/C(=C/C=C3/C[C@@H](O)C[C@H](F)C3)CCC[C@]12C` [Compound 98, 19-Nor 1α-F-3β-OH VD3], the “levels … of SREBP versus DMSO” value was “lower than that of DMSO”.
